Assay results reported in PubChem BioAssay AID587 (National Center for Advancing Translational Sciences (NCATS), 2007).
Screen size: about 59,000 compounds; about 35 (0.06%) were called active. The shares of active, inactive and inconclusive entries below differ from those in the screen. No stated cut-off is given here; in the data, active means max dye-equivalent concentration above about 10 nM; inconclusive means between about 1.1 nM and that limit; inactive means weaker than that.

experiment: qHTS Assay for Spectroscopic Profiling in Texas Red Spectral Region; conditions: Compound fluorescence, Texas Red channel, 547/618 nm; stronger effect = higher value
Procedure, shortened: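 Pin-transferred compounds and Texas Red standards go into 100 mM Tris buffer, pH 8.0. After 15 min at room temperature, plates are imaged with 547/618 nm filters. Each value is a dye-equivalent concentration derived from the per-plate dye curve.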

| SMILES | max dye-equivalent concentration |
| --- | --- |
| Cc1ccccc1CN1CCN(CC(=O)NCc2ccccc2)C1=O | inconclusive: 1.5 nM |
| CCOC(=O)c1c(C)[nH]c(C(=O)CN2C(=O)NC(CC)(c3ccccc3)C2=O)c1C (stereo not given) | inconclusive: 1.7 nM |
| CCOC(=O)C1CCN(Cc2coc3ccc(Cl)cc3c2=O)CC1 | inconclusive: 2 nM |
| CCCC(=O)Nc1ccc2oc(-c3ccc(OC)c(Br)c3)nc2c1 | inconclusive: 1.2 nM |
| O=C(NCC1CCCO1)C1c2ccccc2C(=O)N1C1CCCCCC1 (stereo not given) | inconclusive: 1.1 nM |
| COc1ccc(-c2cc(CCCC(=O)NCCc3ccc(OC)cc3OC)no2)cc1 | inconclusive: 2.3 nM |
| CCOc1ccc(-c2nc(S(=O)(=O)c3ccccc3)c(NCc3cccnc3)o2)cc1 | inconclusive: 1.6 nM |
| NCCCCCC(=O)O | inconclusive: 1.2 nM |
| O=C(Oc1ccc2ccccc2c1Cl)N1CCCC1 | inconclusive: 1.6 nM |
| CCOC(=O)c1c(O)c2c(n(Cc3ccco3)c1=O)CCCC2 | inconclusive: 1.6 nM |
| COC(=O)c1cc(Br)ccc1OC(=O)c1cccnc1 | inconclusive: 1.3 nM |
| O=C1NCC(COCc2ccco2)O1 (stereo not given) | inconclusive: 1.3 nM |
| CC(=O)N1CCc2cc(S(=O)(=O)NCCC(=O)N3CCc4ccccc4C3)ccc21 | inconclusive: 1.3 nM |
| CCOC(=O)C1=C(N)Oc2c(oc(CO)cc2=O)C1c1c(F)cccc1Cl (stereo not given) | inconclusive: 1.2 nM |
| CN1CCCN(C)C1c1cc([N+](=O)[O-])ccc1O | inactive |
| Cc1oc2c(CN3CCCC3)c(O)ccc2c(=O)c1-c1ccc(Br)cc1 | inconclusive: 1.2 nM |
| COCCn1c(=O)cnc2cnc(Nc3cccc(OC)c3)nc21 | inactive |
| COC(=O)C(Cc1ccc(O)cc1)NC(=O)CCC(=O)Nc1ccc(S(N)(=O)=O)cc1 (stereo not given) | inconclusive: 1.8 nM |
| O=C(Oc1cccnc1)c1cc2ccccc2oc1=O | inconclusive: 1.3 nM |
| CCC1CCCCN1C(=O)Nc1cccc(NC(=O)N2CCCCC2CC)c1 (stereo not given) | inconclusive: 1.3 nM |
| Cc1nc(N2CCN(c3ccccc3)CC2)nc2c1C(=O)CC(c1ccccc1)C2 (stereo not given) | inconclusive: 1.1 nM |
| CCOc1ccc(NC(=O)Nc2cc(C)ccc2OC)cc1 | inconclusive: 1.8 nM |

| SMILES | max dye-equivalent concentration |
| --- | --- |
| COc1cc(C)nc(N(Cc2ccccc2)S(=O)(=O)c2ccccc2)n1 | inconclusive: 1.2 nM |
| O=C(c1ccccn1)N1CCN(c2ccc(C(F)(F)F)cn2)CC1 | inconclusive: 1.4 nM |
| CCCCn1nc(C(=O)NC2=NCCS2)c2ccccc2c1=O | inconclusive: 2 nM |
| O=C(NCc1ccccn1)C(C(=O)c1ccc(F)cc1)n1ccccc1=O (stereo not given) | inconclusive: 1.4 nM |
| CCC1Oc2ccc(C)cc2N(CC(=O)N(Cc2ccc3c(c2)OCO3)CC2CCCO2)C1=O (stereo not given) | inconclusive: 1.2 nM |
| O=C(NC1CC2CCCC(C1)N2C(=O)Nc1ccccc1)c1ccncc1 (stereo not given) | inconclusive: 1.2 nM |
| O=C(Cn1nc(-c2ccccc2)nc1-c1ccccc1)N1CCOCC1 | inconclusive: 1.5 nM |
| COCCN1Cc2cccc(C(=O)Nc3ccccc3OC)c2C1=O | inconclusive: 1.1 nM |
| CC1CCC(NC(=O)c2ccc(N3CCCC3=O)cc2)CC1 (stereo not given) | inconclusive: 2.5 nM |
| Cn1c(=O)c2c(nc(/C=C\c3cccc(Cl)c3)n2C)n(C)c1=O | inactive |
| COc1cccc(C2CC(C(F)(F)F)n3ncc(C(=O)NCc4ccco4)c3N2)c1 (stereo not given) | inconclusive: 1.2 nM |
| O=C(CN(Cc1ccco1)C(=O)CNS(=O)(=O)c1ccc(Cl)cc1)NC1CCCCC1 | inconclusive: 1.4 nM |
| N#C/C(C(=O)N1CCCCC1)=C1\Nc2ccccc2S1 | inconclusive: 1.1 nM |
| Cn1cccc1C(=O)N1CCC2(CCN(C(=O)Nc3ccccc3)CC2)CC1 | inactive |
| Cc1ccc(-c2noc(CCC(=O)NCCc3ccccc3Cl)n2)cc1 | inconclusive: 1.2 nM |
| CN(C)S(=O)(=O)c1ccc2c(c1)/C(=C/c1cc3c([nH]1)CCCC3)C(=O)N2 | inactive |
| Clc1cccc(Cl)c1NC1=NCCN1 | inconclusive: 1.3 nM |
| COc1ccc(C(=O)N2c3cc4c(cc3C(C)=CC2(C)C)OCO4)cc1 | inconclusive: 1.7 nM |
| Cn1nc(OCC(N)=O)ccc1=O | inconclusive: 1.5 nM |
| O=C(CCCn1c(=S)[nH]c2ccccc2c1=O)N1CCCCC1 | inconclusive: 1.2 nM |
| Cc1ccc2cc(CN(CC3CCCO3)C(=O)C(C)C)c(=O)[nH]c2c1 (stereo not given) | inconclusive: 1.1 nM |
| CC(C)C(=O)N(Cc1cc2ccccc2[nH]c1=O)C(C)(C)C | inconclusive: 1.1 nM |

| SMILES | max dye-equivalent concentration |
| --- | --- |
| Cc1ccc(S(=O)(=O)N2CCN(c3nc(C)nc4sc(C)c(C)c34)CC2)cc1 | inconclusive: 1.9 nM |
| Cc1ccc2cc(C(c3nnnn3Cc3ccccc3)N3CCN(c4ccccc4)CC3)c(=O)[nH]c2c1 (stereo not given) | inconclusive: 1.2 nM |
| Cc1ccc(Cn2c(NCCc3ccccc3)nc3c2c(=O)n(C)c(=O)n3C)cc1 | inconclusive: 1.6 nM |
| Cc1cccc2cc(CN(CCCO)C(=O)Nc3cccc(Cl)c3)c(=O)[nH]c12 | inconclusive: 2 nM |
| CCOC(=O)c1c(N)sn(-c2ccccc2C)c1=S | inconclusive: 1.5 nM |
| CN(C)/C=N/c1sc2c(c1C#N)CCC2 | inconclusive: 1.1 nM |
| O=C(CN1CCCC1)Nc1ccc(NC(=O)Nc2ccccc2Cl)cc1 | inactive |
| CC1CN(S(=O)(=O)c2cccc(C(=O)OCc3cc(=O)oc4cc(O)ccc34)c2)CC(C)O1 (stereo not given) | inconclusive: 1.8 nM |
| COc1cc(NC(=O)c2ccccc2Cl)c(OC)cc1NC(=O)CN1CCOCC1 | inconclusive: 1.5 nM |
| O=C(CC1OC(=O)c2ccccc21)c1ccco1 (stereo not given) | inconclusive: 1.2 nM |
| O=C(O)CCc1ccc(-c2ccccc2)n1Cc1ccco1 | inconclusive: 1.1 nM |
| CCn1c(SCc2nnc(-c3ccccc3)o2)nnc1-c1ccc(S(=O)(=O)N2CCCC2)cc1 | inconclusive: 1.7 nM |
| COc1ccc(C2C(C(=O)c3ccc(C)o3)=C(O)C(=O)N2c2cc(C)on2)cc1OC (stereo not given) | inconclusive: 1.8 nM |
| Cc1cccn2c(=O)c3cc(C(=O)NCC4CCCO4)c(=N)n(Cc4cccnc4)c3nc12 (stereo not given) | inconclusive: 1.1 nM |
| C=CCSc1n[nH]c(-c2ccc(OCCCC)cc2)n1 | inconclusive: 1.3 nM |
| CCC[C@@H]1O[C@@H]2C[C@@H]3[C@@H]4CCC5=CC(=O)C=C[C@@]5(C)[C@H]4[C@H](O)C[C@@]3(C)[C@@]2(C(=O)CO)O1 | inconclusive: 1.3 nM |
| Cc1ccnc(NC(=O)C2CCN(S(=O)(=O)c3cccc4nonc34)CC2)c1 | inconclusive: 1.9 nM |
| CCCNC(=O)NS(=O)(=O)c1ccc(Cl)cc1 | inconclusive: 1.3 nM |
| Cc1c(CN2CCCCC2)c(O)n(CCCO)c(=O)c1C#N | inconclusive: 2.6 nM |
| CC12CN3CC(C)(CN(C1)C31C(=O)N(Cc3ccccc3)c3ccccc31)C2=O (stereo not given) | inconclusive: 1.4 nM |
| Cc1ccc(NC(=O)c2cnn(-c3ccccc3)c2NC(=O)c2ccco2)cc1 | inconclusive: 1.2 nM |
| Cc1oc2c(C)c3oc(=O)c4c(c3cc2c1C)CCC4 | inconclusive: 1.3 nM |

| SMILES | max dye-equivalent concentration |
| --- | --- |
| O=C(CC1Nc2ccccc2NC1=O)NC1CCCCC1 (stereo not given) | inconclusive: 1.4 nM |
| CCn1cc(C(=O)NCc2ccccn2)c(=O)c2cc(S(=O)(=O)N3CCCCC3)ccc21 | inconclusive: 1.9 nM |
| O=C(Nc1ccccn1)NC(C(F)(F)F)C(F)(F)F | inconclusive: 1.4 nM |
| Cc1cccc2cc(CN(CC3CCCO3)C(=O)NC3CCCCC3)c(=O)[nH]c12 (stereo not given) | inconclusive: 1.2 nM |
| CN(C)c1cccc(C(=O)Nc2cccc(F)c2)c1 | inconclusive: 1.3 nM |
| CCCCN(CCCC)c1nc2ccccc2nc1C(C#N)C(=O)NCCCOC (stereo not given) | inactive |
| O=C(c1nc2n(n1)C(c1ccc(Cl)cc1)C=C(c1ccccc1)N2)N1CCOCC1 (stereo not given) | inconclusive: 2 nM |
| Cc1ccc(-c2noc(CCCC(=O)Nc3cccnc3)n2)cc1 | inconclusive: 1.8 nM |
| Cc1ccccc1-c1nc(CN2CCCC(C(=O)NCc3cccnc3)C2)c(C)o1 (stereo not given) | inconclusive: 1.1 nM |
| CCCc1[nH]nc2c1C1(CCN(C(=O)OCc3ccccc3)CC1)C(C#N)=C(N)O2 | inconclusive: 2.5 nM |
| CN(C(=O)C1CCOC1)c1nnc(C2CCOC2)s1 (stereo not given) | inconclusive: 1.5 nM |
| Cc1nnc2sc(-c3ccc(NC(=O)c4cccnc4)cc3)nn12 | inconclusive: 1.3 nM |
| C[C@](O)(c1ccccc1)c1nccc2ccccc12 | inactive |
| CN1CCN(Cc2nc(N)nc(Nc3ccc4c(c3)OCCO4)n2)CC1 | inconclusive: 1.8 nM |
| O=C(c1ccco1)N1CCN(C(=O)c2ccccc2Oc2ccccc2)CC1 | inconclusive: 1.4 nM |
| Cc1c2cccc(Sc3ccccc3)c2c2c3c(cccc13)[S+](c1ccccc1)C2 (stereo not given) | inconclusive: 1.7 nM |
| CCn1c2ccccc2c2cc(NC(=O)C3CCN(S(=O)(=O)c4cccs4)CC3)ccc21 | inconclusive: 1.4 nM |
| COc1cc(OC)c(NC(=O)CCc2nc(-c3ccc(C)cc3)no2)cc1Cl | inconclusive: 1.2 nM |
| Cc1c(-n2cc(C(=O)c3ccccc3O)cc(C#N)c2=O)c(=O)n(-c2ccccc2)n1C | inactive |

3 compounds drawn at random from the list so far:

| SMILES | max dye-equivalent concentration |
| --- | --- |
| COc1cc(NC(=O)c2ccccc2Cl)c(OC)cc1NC(=O)CN1CCOCC1 | inconclusive: 1.5 nM |
| Cn1nc(OCC(N)=O)ccc1=O | inconclusive: 1.5 nM |
| O=C(Oc1cccnc1)c1cc2ccccc2oc1=O | inconclusive: 1.3 nM |
